According to PubChem BioAssay AID330 (DTP/NCI, 2004):
The list shows only some results of the screen, not a fair sample: it is rich in T/C values a quarter to a half above the control, in often repeated tests (any T/C) and in doses without a T/C. Other doses and runs of a compound stand elsewhere. T/C gives the treated animals as a percentage of the vehicle group. Some doses have a count of surviving animals in place of a T/C: the source files T/C as zero there, which appears to mark a toxic dose or a test without result, not a measured value. Some survivor counts are full or nearly so, which does not show that the dose was tolerated: survival well below the control is almost never listed, so the zero probably covers shortened survival too. Survivors were counted at the toxicity check, usually on the fifth day, unless a day is given; later deaths do not show. Schedules are NCI's codes, read here as Q, the interval in days (D) or hours (H), X, the number of doses. Some doses were run more than once; their values stand side by side, smallest first. Where survival is the endpoint, this PubChem deposit counts one and a half times the control or more as active, and values a quarter to a half above the control carry no call in these data; other NCI protocols may use other cut-offs. Counts like (3×) give the number of equal values in this list.

Tested on: P388 leukemia ip, CD2F1 mice, survival T/C
Experiment: NCI In Vivo Anticancer Drug Screen. Data for tumor model P388 Leukemia (intraperitoneal) in CD2F1 (CDF1) mice
Settings: T/C endpoint: median survival time, higher T/C = longer survival
[1] = dose: 50.0 mg/kg/injection, schedule: Q01DX005 (ip), vehicle: saline with Tween-80
[2] = dose: 100.0 mg/kg/injection, schedule: Q01DX005 (ip), vehicle: saline with Tween-80
[3] = dose: 100.0 mg/kg/injection, schedule: Q01DX009 (ip), vehicle: saline with Tween-80
[4] = dose: 200.0 mg/kg/injection, schedule: Q01DX005 (ip), vehicle: saline with Tween-80
[5] = dose: 50.0 mg/kg/injection, schedule: Q01DX005 (ip), vehicle: Klucel (hydroxypropylcellulose) (HPC)
[6] = dose: 200.0 mg/kg/injection, schedule: Q01DX005 (ip), vehicle: Klucel (hydroxypropylcellulose) (HPC)
[7] = dose: 400.0 mg/kg/injection, schedule: Q04DX003 (ip), vehicle: saline with Tween-80

CN(C)c1ccc(C(Cl)[O][Sn]([CH3])([CH3])[Cl])cc1 (stereo not given)
survivor count (dose: 100.0 mg/kg/injection, schedule: Q04DX002 (ip), vehicle: saline with Tween-80): 0 of 6 and 4 of 6
survivor count (dose: 200.0 mg/kg/injection, schedule: Q04DX002 (ip), vehicle: saline with Tween-80): 0 of 6
survivor count (dose: 400.0 mg/kg/injection, schedule: Q04DX002 (ip), vehicle: saline with Tween-80): 0 of 6

CCC(=O)NC1=C(Cl)C(=O)C(NC(=O)CC)=C(Cl)C1=O
survivor count (dose: 200.0 mg/kg/injection, schedule: Q01DX009 (ip), vehicle: Klucel (hydroxypropylcellulose) (HPC)): 0 of 6

O=C1C=CC2OC(c3ccccc3)C(O)C2O1 (stereo not given)
survivor count (dose: 45.0 mg/kg/injection, schedule: Q01DX009 (ip), vehicle: DMSO): 1 of 6
survivor count (dose: 50.0 mg/kg/injection, schedule: Q01DX005 (ip), vehicle: DMSO): 3 of 6
survivor count [1]: 6 of 6
survivor count (dose: 50.0 mg/kg/injection, schedule: Q01DX009 (ip), vehicle: distilled water + Tween-80 + alcohol): 0 of 4
survivor count [2]: 0 of 6

CC1[C@@H]2CC=C3[C@H]4CCC5Cc6nc7c(nc6C[C@@]5(C)C4CC(=O)[C@]32CO[C@]12OC(C)(C)CC2O)CC1CC[C@@H]2C3=C[C@H]4O[C@@]5(O[C@@](C)(CO)C[C@@H]5O)C(C)[C@@]4(O)[C@]3(C)[C@@H](O)CC2[C@]1(C)C7 (stereo not given in full)
survivor count (dose: 0.16 mg/kg/injection, schedule: Q01DX009 (ip), vehicle: saline + alcohol): 3 of 6
survivor count (dose: 0.32 mg/kg/injection, schedule: Q01DX009 (ip), vehicle: saline + alcohol): 0 of 5
survivor count (dose: 0.65 mg/kg/injection, schedule: Q01DX009 (ip), vehicle: saline + alcohol): 0 of 4
T/C (dose: 40.0 micrograms/kg/injection, schedule: Q01DX005 (ip), vehicle: saline + alcohol): 131 % of control (2×)
survivor count (dose: 80.0 micrograms/kg/injection, schedule: Q01DX005 (ip), vehicle: saline + alcohol): 5 of 6

CCOS(=O)(=O)CCl
survivor count [3]: 5 of 5
survivor count (dose: 200.0 mg/kg/injection, schedule: Q01DX009 (ip), vehicle: saline with Tween-80): 0 of 6

CC1CC[P+](C)(c2ccccc2)c2ccccc21 (stereo not given)
survivor count (dose: 25.0 mg/kg/injection, schedule: Q04DX002 (ip), vehicle: saline): 0 of 6
survivor count (dose: 50.0 mg/kg/injection, schedule: Q04DX002 (ip), vehicle: saline): 0 of 6
survivor count (dose: 100.0 mg/kg/injection, schedule: Q04DX002 (ip), vehicle: saline): 0 of 6
survivor count (dose: 200.0 mg/kg/injection, schedule: Q04DX002 (ip), vehicle: saline): 0 of 6
survivor count (dose: 400.0 mg/kg/injection, schedule: Q04DX002 (ip), vehicle: saline): 0 of 6

CN1CCC23c4c5ccc(O)c4OC2C(=NN=C2CCC4(O)C6Cc7ccc(O)c8c7C4(CCN6C)C2O8)CCC3(O)C1C5 (stereo not given)
survivor count [1]: 0 of 6 and 3 of 6
survivor count [2]: 0 of 6
survivor count [4]: 0 of 6

CC(C)(C)[P+](C)(C)c1ccccc1
survivor count (dose: 50.0 mg/kg/injection, schedule: Q04DX003 (ip), vehicle: Klucel (hydroxypropylcellulose) (HPC)): 3 of 6
survivor count (dose: 100.0 mg/kg/injection, schedule: Q04DX003 (ip), vehicle: Klucel (hydroxypropylcellulose) (HPC)): 0 of 6
survivor count (dose: 200.0 mg/kg/injection, schedule: Q04DX003 (ip), vehicle: Klucel (hydroxypropylcellulose) (HPC)): 0 of 6
survivor count (dose: 400.0 mg/kg/injection, schedule: Q04DX003 (ip), vehicle: Klucel (hydroxypropylcellulose) (HPC)): 0 of 6

O=C1Nc2ccccc2C1(N1CCCCC1)N1CCCCC1
survivor count [3]: 6 of 6

COSc1ccc(C)cc1
survivor count (dose: 400.0 mg/kg/injection, schedule: Q04DX003 (ip), vehicle: saline): 2 of 6

NS(=O)(=O)c1ccc(N=NC2C(=O)N(c3ccc(Cl)cc3)C(=S)N(c3ccc(Cl)cc3)C2=O)cc1
survivor count (dose: 100.0 mg/kg/injection, schedule: Q01DX005 (ip), vehicle: saline): 1 of 6
survivor count (dose: 200.0 mg/kg/injection, schedule: Q01DX005 (ip), vehicle: saline): 0 of 6

CN(c1ccc(C2=NCCN2)cc1)S(=O)(=O)c1ccc(Cc2ccc(S(=O)(=O)N(C)c3ccc(C4=NCCN4)cc3)cc2)cc1
survivor count (dose: 25.0 mg/kg/injection, schedule: Q01DX005 (ip), vehicle: Klucel (hydroxypropylcellulose) (HPC)): 3 of 6
survivor count [5]: 0 of 5
survivor count (dose: 100.0 mg/kg/injection, schedule: Q01DX005 (ip), vehicle: Klucel (hydroxypropylcellulose) (HPC)): 0 of 5
survivor count [6]: 0 of 5

CC(=O)C[n+]1cccc(C)c1Sc1ccccc1
survivor count [2]: 0 of 5
survivor count [4]: 0 of 5

Cc1cc(N2C(=O)CSC2=S)c([N+](=O)[O-])cc1C
survivor count (dose: 200.0 mg/kg/injection, schedule: Q01DX009 (ip), vehicle: suspension in saline): 6 of 6

[B-][N+]12CC[N+]([B-])(CC1)CC2
survivor count (dose: 250.0 micrograms/kg/injection, schedule: Q01DX009 (ip), vehicle: saline): 6 of 6

O=S(=O)(OCCCl)c1c(Cl)c(Cl)c(Cl)c(Cl)c1Cl
survivor count [4]: 0 of 5

O=C1OC(=O)c2ccc3c4c(ccc1c24)C(=O)OC3=O
survivor count [4]: 4 of 6

C=CC(=NC(C)(C)C)Nc1cccc(Cl)c1
survivor count (dose: 100.0 mg/kg/injection, schedule: Q04DX003 (ip), vehicle: saline with Tween-80): 0 of 6
survivor count (dose: 200.0 mg/kg/injection, schedule: Q04DX003 (ip), vehicle: saline with Tween-80): 0 of 6
survivor count [7]: 0 of 6

C=C1CC2(CCOc3ccc(Cl)cc32)OC1=O (stereo not given)
survivor count [7]: 5 of 6

CC(=O)O[C@@H]1C[C@H](O)[C@@]23COC(O)[C@H]1[C@@H]2C[C@@H](O)[C@@]1(C)C2C(=O)C[C@@H](c4ccoc4)[C@]2(C)CC[C@@H]13 (stereo not given in full)
survivor count (dose: 0.3 mg/kg/injection, schedule: Q01DX009 (ip), vehicle: Klucel (hydroxypropylcellulose) (HPC)): 6 of 6
survivor count (dose: 0.6 mg/kg/injection, schedule: Q01DX009 (ip), vehicle: Klucel (hydroxypropylcellulose) (HPC)): 6 of 6
survivor count (dose: 1.2 mg/kg/injection, schedule: Q01DX009 (ip), vehicle: Klucel (hydroxypropylcellulose) (HPC)): 6 of 6

CC1(C)OC(=O)ON(C(c2ccccc2)c2ccccc2)C1=O
survivor count (dose: 240.0 mg/kg/injection, schedule: Q01DX005 (ip), vehicle: saline with Tween-80): 4 of 6

CC1=NN(c2ccccc2)C(=O)C1N=Nc1cc(Cl)cc(S(=O)(=O)O)c1O (stereo not given)
survivor count (dose: 200.0 mg/kg/injection, schedule: Q01DX009 (ip), vehicle: saline): 5 of 6

Cc1cc(NCCN(C(C)C)C(C)C)nc(Nc2nc3cc(Cl)c(Cl)cc3[nH]2)n1
survivor count (dose: 25.0 mg/kg/injection, schedule: Q01DX009 (ip), vehicle: saline sonified): 4 of 6

COc1cc2cccc(O)c2cc1OC
survivor count (dose: 100.0 mg/kg/injection, schedule: Q01DX009 (ip), vehicle: other): 6 of 6
survivor count (dose: 400.0 mg/kg/injection, schedule: Q01DX009 (ip), vehicle: other): 3 of 6

CC(=O)Nc1ccc(N=NNc2ccccc2)cc1
survivor count (dose: 25.0 mg/kg/injection, schedule: Q01DX001 (ip), vehicle: Klucel (hydroxypropylcellulose) (HPC)): 2 of 6
survivor count (dose: 50.0 mg/kg/injection, schedule: Q01DX001 (ip), vehicle: Klucel (hydroxypropylcellulose) (HPC)): 0 of 6

N#Cc1nn(-c2ccccc2)sc1=N
survivor count (dose: 200.0 mg/kg/injection, schedule: Q01DX009 (ip), vehicle: other): 2 of 6

CC(C)C(NSC(=O)C1CCCN1Sc1ccc([N+](=O)[O-])cc1[N+](=O)[O-])C(=O)OCc1ccccc1 (stereo not given)
survivor count [5]: 6 of 6
survivor count [6]: 6 of 6

CC(=O)OC1OC(COS(=O)(=O)c2ccc(C)cc2)C(OC(C)=O)C(OC(C)=O)C1OC(C)=O (stereo not given)
survivor count (dose: 50.0 mg/kg/injection, schedule: Q01DX009 (ip), vehicle: other): 6 of 6
